Assay results as given in the supplement of paper PMC10849652.
The list shows a part of the results.

Amino acid sequences for entries named in this document (tags omitted). A change or cut given only in a name is not applied to a line headed by its entry.
UniProt P41214: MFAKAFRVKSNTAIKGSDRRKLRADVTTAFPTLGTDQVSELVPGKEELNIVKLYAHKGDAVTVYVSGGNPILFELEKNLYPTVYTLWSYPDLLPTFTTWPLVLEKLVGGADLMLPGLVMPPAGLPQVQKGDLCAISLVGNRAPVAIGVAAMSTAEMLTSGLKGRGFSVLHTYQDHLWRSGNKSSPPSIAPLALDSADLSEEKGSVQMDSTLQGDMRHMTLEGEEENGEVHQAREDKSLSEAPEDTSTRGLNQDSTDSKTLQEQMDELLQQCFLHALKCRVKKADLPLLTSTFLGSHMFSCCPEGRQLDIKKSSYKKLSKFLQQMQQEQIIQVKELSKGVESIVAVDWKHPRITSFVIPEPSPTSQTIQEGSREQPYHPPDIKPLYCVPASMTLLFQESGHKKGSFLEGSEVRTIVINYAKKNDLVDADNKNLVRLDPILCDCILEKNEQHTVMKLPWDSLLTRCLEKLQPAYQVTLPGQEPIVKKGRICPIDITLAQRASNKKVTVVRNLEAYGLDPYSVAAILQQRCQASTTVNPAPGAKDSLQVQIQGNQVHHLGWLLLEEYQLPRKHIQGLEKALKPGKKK
UniProt Q14249: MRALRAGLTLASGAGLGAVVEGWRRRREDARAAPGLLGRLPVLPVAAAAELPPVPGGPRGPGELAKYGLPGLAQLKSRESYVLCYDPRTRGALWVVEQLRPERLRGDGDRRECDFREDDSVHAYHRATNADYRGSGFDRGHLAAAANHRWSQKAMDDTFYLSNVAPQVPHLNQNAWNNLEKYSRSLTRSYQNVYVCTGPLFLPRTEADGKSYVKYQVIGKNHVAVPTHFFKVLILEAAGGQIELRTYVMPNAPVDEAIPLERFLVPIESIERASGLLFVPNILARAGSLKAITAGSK
UniProt P78344: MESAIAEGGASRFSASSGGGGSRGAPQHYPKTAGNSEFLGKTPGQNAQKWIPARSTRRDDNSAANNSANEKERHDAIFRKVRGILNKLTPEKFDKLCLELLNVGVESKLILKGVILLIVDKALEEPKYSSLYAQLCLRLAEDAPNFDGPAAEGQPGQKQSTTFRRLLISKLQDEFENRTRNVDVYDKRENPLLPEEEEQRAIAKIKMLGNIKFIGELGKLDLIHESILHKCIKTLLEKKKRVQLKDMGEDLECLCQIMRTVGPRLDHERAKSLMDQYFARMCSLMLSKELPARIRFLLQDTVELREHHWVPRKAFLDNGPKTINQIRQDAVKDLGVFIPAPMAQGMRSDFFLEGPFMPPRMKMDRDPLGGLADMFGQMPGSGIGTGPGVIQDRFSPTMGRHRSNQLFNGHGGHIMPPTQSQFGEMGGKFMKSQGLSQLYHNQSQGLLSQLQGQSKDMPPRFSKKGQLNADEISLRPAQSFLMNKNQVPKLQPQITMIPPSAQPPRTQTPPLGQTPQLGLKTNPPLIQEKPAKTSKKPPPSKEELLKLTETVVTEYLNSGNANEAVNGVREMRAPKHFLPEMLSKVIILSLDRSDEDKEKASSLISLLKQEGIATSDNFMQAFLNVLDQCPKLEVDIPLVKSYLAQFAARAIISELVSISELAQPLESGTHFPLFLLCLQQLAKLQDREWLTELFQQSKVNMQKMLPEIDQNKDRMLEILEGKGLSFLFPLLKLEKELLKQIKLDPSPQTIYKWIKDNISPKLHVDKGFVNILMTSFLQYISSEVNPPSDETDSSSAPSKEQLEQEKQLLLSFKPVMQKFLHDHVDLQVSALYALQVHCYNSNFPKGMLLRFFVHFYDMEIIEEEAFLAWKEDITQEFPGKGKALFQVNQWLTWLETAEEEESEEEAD
UniProt Q05639, whole entry, looked up: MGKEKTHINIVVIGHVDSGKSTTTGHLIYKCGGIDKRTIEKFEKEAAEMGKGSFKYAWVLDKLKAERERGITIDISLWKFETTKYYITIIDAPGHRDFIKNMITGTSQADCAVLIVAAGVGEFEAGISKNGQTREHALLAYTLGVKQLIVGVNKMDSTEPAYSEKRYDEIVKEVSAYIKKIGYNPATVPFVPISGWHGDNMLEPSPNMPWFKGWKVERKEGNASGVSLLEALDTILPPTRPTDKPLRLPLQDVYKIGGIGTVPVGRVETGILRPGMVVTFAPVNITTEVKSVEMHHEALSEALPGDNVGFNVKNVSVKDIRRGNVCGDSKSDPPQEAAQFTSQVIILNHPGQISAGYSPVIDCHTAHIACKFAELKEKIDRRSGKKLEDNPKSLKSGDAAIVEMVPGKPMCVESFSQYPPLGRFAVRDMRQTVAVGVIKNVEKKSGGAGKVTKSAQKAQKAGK
UniProt Q9NRA8: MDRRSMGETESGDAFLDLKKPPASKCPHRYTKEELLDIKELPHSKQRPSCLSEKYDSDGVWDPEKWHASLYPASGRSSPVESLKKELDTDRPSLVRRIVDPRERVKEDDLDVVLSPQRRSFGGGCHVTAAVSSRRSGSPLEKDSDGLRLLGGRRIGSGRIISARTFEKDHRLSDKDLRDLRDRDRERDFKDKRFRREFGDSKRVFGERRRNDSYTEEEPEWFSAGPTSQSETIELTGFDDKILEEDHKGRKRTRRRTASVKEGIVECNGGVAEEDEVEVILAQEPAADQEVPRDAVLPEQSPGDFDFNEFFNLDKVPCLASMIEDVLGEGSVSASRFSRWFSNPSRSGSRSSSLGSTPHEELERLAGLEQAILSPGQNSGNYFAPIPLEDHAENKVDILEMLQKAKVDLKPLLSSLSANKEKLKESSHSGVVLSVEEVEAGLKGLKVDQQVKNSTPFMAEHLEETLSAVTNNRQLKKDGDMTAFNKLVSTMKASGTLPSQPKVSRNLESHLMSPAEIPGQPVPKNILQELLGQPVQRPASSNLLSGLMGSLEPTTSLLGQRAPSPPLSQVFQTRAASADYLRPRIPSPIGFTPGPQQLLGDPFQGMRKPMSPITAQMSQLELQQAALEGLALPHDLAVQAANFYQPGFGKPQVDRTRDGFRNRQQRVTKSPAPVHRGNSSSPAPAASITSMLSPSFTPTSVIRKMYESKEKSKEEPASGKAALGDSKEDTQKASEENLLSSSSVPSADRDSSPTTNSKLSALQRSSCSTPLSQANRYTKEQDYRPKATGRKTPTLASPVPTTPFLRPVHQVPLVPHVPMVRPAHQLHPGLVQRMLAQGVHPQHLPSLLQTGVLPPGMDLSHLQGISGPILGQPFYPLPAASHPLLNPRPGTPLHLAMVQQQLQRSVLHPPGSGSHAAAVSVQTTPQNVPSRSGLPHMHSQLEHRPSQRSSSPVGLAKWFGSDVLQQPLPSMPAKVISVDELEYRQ
UniProt Q13542: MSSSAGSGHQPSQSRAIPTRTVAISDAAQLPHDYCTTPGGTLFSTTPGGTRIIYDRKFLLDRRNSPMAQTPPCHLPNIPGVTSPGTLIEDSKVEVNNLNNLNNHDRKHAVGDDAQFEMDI
UniProt Q9H223: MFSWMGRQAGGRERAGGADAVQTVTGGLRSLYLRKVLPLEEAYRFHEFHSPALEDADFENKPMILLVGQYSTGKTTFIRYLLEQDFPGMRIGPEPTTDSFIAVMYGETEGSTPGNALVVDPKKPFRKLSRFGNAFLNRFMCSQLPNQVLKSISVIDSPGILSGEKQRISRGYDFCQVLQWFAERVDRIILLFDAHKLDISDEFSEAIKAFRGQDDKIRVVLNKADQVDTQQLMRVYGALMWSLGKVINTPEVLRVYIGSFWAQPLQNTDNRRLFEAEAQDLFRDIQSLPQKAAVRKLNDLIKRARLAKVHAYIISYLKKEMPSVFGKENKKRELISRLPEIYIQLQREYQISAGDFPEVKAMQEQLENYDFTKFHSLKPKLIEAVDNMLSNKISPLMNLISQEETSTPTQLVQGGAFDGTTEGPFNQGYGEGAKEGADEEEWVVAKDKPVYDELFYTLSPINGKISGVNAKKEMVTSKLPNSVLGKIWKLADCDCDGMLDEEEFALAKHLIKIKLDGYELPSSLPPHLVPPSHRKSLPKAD
UniProt Q53HC9: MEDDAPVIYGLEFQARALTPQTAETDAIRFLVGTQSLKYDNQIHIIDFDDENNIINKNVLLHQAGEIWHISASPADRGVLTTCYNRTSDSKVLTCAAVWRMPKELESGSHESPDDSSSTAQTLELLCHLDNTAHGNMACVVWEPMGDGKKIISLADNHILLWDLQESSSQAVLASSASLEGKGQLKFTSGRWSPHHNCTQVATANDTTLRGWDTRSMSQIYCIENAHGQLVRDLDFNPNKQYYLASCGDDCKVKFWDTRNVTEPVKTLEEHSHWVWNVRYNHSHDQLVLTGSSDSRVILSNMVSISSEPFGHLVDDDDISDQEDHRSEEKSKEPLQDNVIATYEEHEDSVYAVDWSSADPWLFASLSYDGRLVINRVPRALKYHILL
UniProt Q99613, whole entry, looked up: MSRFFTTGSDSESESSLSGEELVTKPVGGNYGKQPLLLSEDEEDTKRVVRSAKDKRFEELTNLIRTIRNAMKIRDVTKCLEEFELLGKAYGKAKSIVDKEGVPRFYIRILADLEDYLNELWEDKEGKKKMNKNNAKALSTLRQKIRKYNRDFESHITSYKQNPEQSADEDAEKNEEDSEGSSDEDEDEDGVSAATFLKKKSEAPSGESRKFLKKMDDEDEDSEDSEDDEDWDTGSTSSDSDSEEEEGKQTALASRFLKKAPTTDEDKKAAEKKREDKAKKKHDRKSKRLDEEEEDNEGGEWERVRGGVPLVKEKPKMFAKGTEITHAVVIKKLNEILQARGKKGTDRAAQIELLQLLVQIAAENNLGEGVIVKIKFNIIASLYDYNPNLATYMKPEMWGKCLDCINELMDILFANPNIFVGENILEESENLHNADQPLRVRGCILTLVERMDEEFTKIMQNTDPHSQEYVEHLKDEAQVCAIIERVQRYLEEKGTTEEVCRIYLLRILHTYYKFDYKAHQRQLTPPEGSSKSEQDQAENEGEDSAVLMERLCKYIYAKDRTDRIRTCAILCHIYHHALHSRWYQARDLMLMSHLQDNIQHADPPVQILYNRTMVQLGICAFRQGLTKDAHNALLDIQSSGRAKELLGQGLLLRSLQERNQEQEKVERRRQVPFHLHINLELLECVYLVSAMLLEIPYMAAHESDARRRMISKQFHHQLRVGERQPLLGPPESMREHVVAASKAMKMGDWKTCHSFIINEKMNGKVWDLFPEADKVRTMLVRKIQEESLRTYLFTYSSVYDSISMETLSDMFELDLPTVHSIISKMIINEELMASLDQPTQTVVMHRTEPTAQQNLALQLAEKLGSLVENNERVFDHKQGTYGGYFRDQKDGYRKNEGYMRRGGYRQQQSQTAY
UniProt P60228, whole entry, looked up: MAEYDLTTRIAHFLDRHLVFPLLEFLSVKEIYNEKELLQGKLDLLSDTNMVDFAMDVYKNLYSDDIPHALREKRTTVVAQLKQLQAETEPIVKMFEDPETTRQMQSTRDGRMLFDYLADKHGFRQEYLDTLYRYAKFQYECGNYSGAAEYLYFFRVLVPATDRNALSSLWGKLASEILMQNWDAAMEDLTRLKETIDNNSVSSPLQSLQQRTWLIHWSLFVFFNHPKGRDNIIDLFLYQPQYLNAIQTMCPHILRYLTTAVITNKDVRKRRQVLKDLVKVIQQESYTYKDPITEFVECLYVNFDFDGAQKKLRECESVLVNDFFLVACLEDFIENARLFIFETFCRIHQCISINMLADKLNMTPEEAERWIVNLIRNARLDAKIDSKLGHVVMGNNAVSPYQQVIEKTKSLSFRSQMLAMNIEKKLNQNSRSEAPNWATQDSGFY
UniProt Q5J8M3, whole entry, looked up: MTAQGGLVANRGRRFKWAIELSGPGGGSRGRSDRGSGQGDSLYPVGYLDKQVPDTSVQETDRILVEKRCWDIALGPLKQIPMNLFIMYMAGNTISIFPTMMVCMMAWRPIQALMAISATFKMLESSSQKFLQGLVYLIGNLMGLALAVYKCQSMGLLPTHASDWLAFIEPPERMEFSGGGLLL
UniProt Q8TE02: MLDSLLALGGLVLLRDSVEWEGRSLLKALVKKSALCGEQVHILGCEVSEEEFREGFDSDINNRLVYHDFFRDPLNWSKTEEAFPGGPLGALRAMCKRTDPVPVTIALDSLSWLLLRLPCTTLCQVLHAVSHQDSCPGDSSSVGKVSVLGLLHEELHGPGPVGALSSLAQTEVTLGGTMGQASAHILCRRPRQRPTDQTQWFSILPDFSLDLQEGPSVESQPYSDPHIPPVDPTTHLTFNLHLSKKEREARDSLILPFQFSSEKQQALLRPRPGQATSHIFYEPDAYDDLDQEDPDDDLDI
UniProt P55010, whole entry, looked up: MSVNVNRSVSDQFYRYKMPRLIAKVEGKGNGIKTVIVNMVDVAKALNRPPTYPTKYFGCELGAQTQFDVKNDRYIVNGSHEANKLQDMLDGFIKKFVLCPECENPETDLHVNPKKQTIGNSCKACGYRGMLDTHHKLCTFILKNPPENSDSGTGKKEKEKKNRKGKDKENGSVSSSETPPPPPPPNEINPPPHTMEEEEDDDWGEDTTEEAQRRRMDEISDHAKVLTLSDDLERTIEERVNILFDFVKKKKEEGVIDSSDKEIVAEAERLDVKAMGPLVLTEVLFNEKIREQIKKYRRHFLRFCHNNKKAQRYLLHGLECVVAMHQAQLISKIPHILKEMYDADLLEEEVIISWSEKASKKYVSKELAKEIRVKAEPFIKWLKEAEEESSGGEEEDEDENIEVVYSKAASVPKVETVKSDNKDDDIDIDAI

These targets were tested with C[C@H](C1=CC=C(C=C1)C(=O)NC2=C3C=CNC3=NC=C2)N (assay: log2 fold change, soluble protein after heating vs DMSO (PISA); higher = thermal stabilisation; K562 cells, 10 uM, 30 min; active = over 0.2 and 3.5 SD of the protein, either way, in both replicates (recomputed)).
Method in brief: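 Quantification of soluble protein used TMTpro 16plex LC-MS/MS, with channel sums equalised. Samples were the supernatant after 21,000xg for 90 min of pooled aliquots from K562 cells (2×10^6 cells/mL) treated with 10 μM compound for 30 min, heated for 3 min over 48°C-58°C, and extracted in PBS with 0.5% NP-40 at 4°C. Values, from duplicates, describe thermal stability against control samples on a log2 fold-change scale.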

log2 fold change, inactive:
EIF2D (UniProt P41214) 0.224, EMC2 (UniProt Q15006) -0.029, EHMT2 (UniProt Q96KQ7) -0.01, ENDOG (UniProt Q14249) -0.002, EIF4G2 (UniProt P78344) 0.438, EIF2B1 (UniProt Q14232) -0.119, EEF1A2 (UniProt Q05639) -0.004, ENOPH1 (UniProt Q9UHY7) -0.095, EIF4ENIF1 isoform 3 (UniProt Q9NRA8) 0.018, ENO2 (UniProt P09104) -0.067, EIF4EBP2 (UniProt Q13542) 0.006, EFTUD2 (UniProt Q15029) -0.044, EIF5B (UniProt O60841) 0.02, EHD4 (UniProt Q9H223) -0.024, EIPR1 (UniProt Q53HC9) -0.022, EI24 (UniProt O14681) -0.017, EIF3C (UniProt Q99613) 0.223, EIF3E (UniProt P60228) 0.204, EIF3L (UniProt Q9Y262) -0.022, EMC4 (UniProt Q5J8M3) -0.007, EIF4EBP1 (UniProt Q13541) -0.073, ELP5 isoform 4 (UniProt Q8TE02) -0.016, EIF5 (UniProt P55010) -0.08
